# Results taken from PubChem BioAssay AID1259415 (National Center for Advancing Translational Sciences (NCATS), 2018).
# The campaign covered roughly 410,000 compounds. About 18,000 (4.4%) were called active. Inconclusive means that the source gave no clear call. Such entries were picked first, then a sample of the others. Rule as the data show it: active = activity change below about -60%; inconclusive = no clear call, values can overlap the other calls; inactive = above about -39%.
# Assay: qHTS Assay for inhibitors of the human cytomegalovirus (HCMV)
# Conditions: HFF cells, HCMV-luciferase reporter, 72 h; at 57.5 µM; stronger effect = lower value
# Outline: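 After 16 h attachment at 37C, HFF cells received test compound and HCMV-luciferase (1 PFU/cell); reporter luminescence read 72 h later, data normalized against buffer-only and known inhibitor Salinomycin.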
# % is scaled to controls: 0 for no effect and ±100 for the full control effect.
row,SMILES,"activity change, negative = inhibition"
1,O=C1NC(=O)C(c2cccs2)(c2cccs2)N1,inactive: -7.51%
2,Cc1ccc(C2(C)NC(=O)N(CC(=O)Nc3cc(S(=O)(=O)N4CCCCC4)ccc3OC(C)C)C2=O)cc1 (centres undefined),inconclusive: -51.3%
3,COCCN(C(=S)Nc1ccc(OC)c(Cl)c1)C1CCN(C(C)C)CC1,inconclusive: -43%
4,CCc1ccc(NC(=O)c2cnn(-c3c(C)cccc3C)c2C2CCN(C(=O)OC(C)(C)C)CC2)cc1,inconclusive: -49.4%
5,CC(C)N(CCn1c(SCC(=O)Nc2cccnc2Cl)nc2ccccc2c1=O)C(C)C,inactive: -17.1%
6,Cc1cc(C)c(C)c(S(=O)(=O)N2CCN(c3ncnc4ccccc34)CC2)c1C,inconclusive: -44.8%
7,CCOc1nc(OCC)nc(-n2cc(-c3ccccc3)nn2)n1,inconclusive: -55.9%
8,O=C(NCC(c1ccco1)N1CCCCC1)c1ccc(COc2ccccc2)cc1 (centres undefined),inactive: -12.2%
9,O=C(COc1ccc(S(=O)(=O)N2CCOCC2)cc1)NCCCn1ccnc1,inconclusive: -49.7%
10,CCc1ccc(C(=O)NC(=S)NCc2cccnc2)cc1,inconclusive: -53.7%
11,Cc1ccc(C(=O)N2CCN(c3ccc(C(F)(F)F)cn3)CC2)cc1,inconclusive: -44.2%
12,Cc1ccc(OCCCCn2c(CO)nc3ccccc32)cc1,active: -65%
13,NS(=O)(=O)c1ccc(CNC(=O)c2cccc(S(=O)(=O)N3CCc4ccccc43)c2)cc1,inconclusive: -50.4%
14,Cc1ccsc1/C=N/N1CCN(Cc2ccccc2)CC1,inactive: -30.7%
15,CC(C)C[C@H]1CNC(=S)N1C[C@H]1CCCN1C[C@H](Cc1ccccc1)N1C[C@H](Cc2ccc(O)cc2)N(CC2CCCCCC2)C1=S,active: -83.9%
16,Cc1[nH]c2ccccc2c1/C=N/Nc1nc(Nc2ccccc2)nc(N2CCOCC2)n1,active: -99.4%
17,CC(=NNc1cc(C)c2ccccc2n1)c1ccccn1,active: -97.8%
18,N#C/C(=C\c1cccs1)c1nc2ccccc2[nH]1,inactive: 89.9%
19,CN1CCC(Oc2ccccc2Sc2ccc(C(F)(F)F)cc2)CC1,inconclusive: -57.6%
20,Cc1noc(C)c1NC(=O)N(C)C[C@H]1OCc2cnnn2CCCC(=O)N([C@@H](C)CO)C[C@H]1C,inactive: 7.19%
21,Nc1nc(Nc2ccccc2F)nc(NC2CCCCC2)c1[N+](=O)[O-],active: -66%
22,COC(=O)C1=C(NC(=O)COc2ccc3ccccc3c2)CCS1,inconclusive: -44%

# 3 compounds already listed, arranged by length of the SMILES, ascending.
row,SMILES,"activity change, negative = inhibition"
7,CCOc1nc(OCC)nc(-n2cc(-c3ccccc3)nn2)n1,inconclusive: -55.9%
2,Cc1ccc(C2(C)NC(=O)N(CC(=O)Nc3cc(S(=O)(=O)N4CCCCC4)ccc3OC(C)C)C2=O)cc1 (centres undefined),inconclusive: -51.3%
15,CC(C)C[C@H]1CNC(=S)N1C[C@H]1CCCN1C[C@H](Cc1ccccc1)N1C[C@H](Cc2ccc(O)cc2)N(CC2CCCCCC2)C1=S,active: -83.9%

# (list continues)

row,SMILES,"activity change, negative = inhibition"
1,CC(C)c1nc(NCCN2CCOCC2)c(C#N)c2c1COC(C)(C)C2,inactive: -20.1%
2,CC(=O)Nc1ccc(NC(=O)c2c(C)noc2C)cc1,inactive: 22.7%
3,CCCCNC(=O)N1CCCN(c2ccc(C#N)cn2)CC1,active: -64.6%
4,CCCOc1ccc(-c2c(C(=O)N/N=C/c3ccco3)nnn2-c2nonc2N)cc1,inconclusive: -41.5%
5,COc1ccc(C(c2ccc(OC)cc2)C(Cl)(Cl)Cl)cc1,inconclusive: -41.9%
6,CC1(C)COC(/C=C/c2cccc([N+](=O)[O-])c2)=N1,active: -94.8%
7,Cn1c(=O)[nH]c(=O)c2c1nc(Br)n2CCCSc1nc2ccccc2o1,active: -60.8%
8,COc1ccccc1/C=C/C(=O)/C=C/c1ccccc1O,active: -98%
9,Cc1cccc(C)c1NC(=O)C(Cl)=C(Cl)Cl,active: -89%
10,Cc1ccc2cccc([N+](=O)[O-])c2n1,inactive: 19.3%
11,CC(=O)c1ccc(N2CCN(c3ncnc4c3c(-c3ccccc3)cn4-c3ccc(C)c(Cl)c3)CC2)cc1,inconclusive: -54.8%
12,COc1cc(C#N)ccc1OCC(=O)Nc1cccc(S(=O)(=O)N(C)c2ccccc2)c1,inactive: 16.8%
13,CC(C)Cn1c(=O)c2ccccc2n2c(CCC(=O)N3CCN(c4cccc(Cl)c4)CC3)nnc12,inconclusive: -46.5%
14,Cc1nn(-c2ccccc2)c(N)c1Sc1cccc([N+](=O)[O-])c1,active: -76.4%
15,CN(C)S(=O)(=O)Nc1ccccn1,inconclusive: -40.5%
16,O=C1CC(Sc2nnnn2-c2ccccc2)C(=O)N1c1cccc(Cl)c1 (centres undefined),active: -61.8%
17,COc1ccc(N/C(C)=C2/C(=O)C(=O)N(CCO)C2c2ccc(Br)cc2)cc1 (centres undefined),active: -95.5%
18,Cc1ccnc(NC(=O)CS(=O)(=O)Cc2ccccc2)c1,active: -99.3%
19,Cc1ccc(C2C=C(c3ccccc3)Nc3nc(N4C(=O)CCC4=O)nn32)cc1 (centres undefined),active: -61.9%
20,O=C(NCCn1ccc2ccccc21)c1ccc(S(=O)(=O)N2CCCCC2)cc1,active: -67.3%
21,COc1ccc(/C=C2\SC(=O)N(CC(=O)N(C)C3CCS(=O)(=O)C3)C2=O)cc1 (centres undefined),inconclusive: -40.7%
22,O=S1(=O)N(Cc2ccc(F)cc2)CCCN1Cc1ccccc1Cl,inconclusive: -55.1%
